Values from PubChem BioAssay AID652259 (Drosophila RNAi Screening Center, 2013).
In all, the deposit lists about 22,000 reagents; this is an unselected part of those with a known target gene and a result. Over the whole deposit, 233 (1.1%) got an active call. 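Light values are raw, unnormalised plate reads; the ratio scores behind the reporter calls were not deposited.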 The numbers tell different reagents against one gene apart. Names joined by + are all predicted targets of the reagent. Reagent sequences are not shown. The record does not give: the amount of reagent, the time to read-out, the dose of the treatment.

Assay: 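Knock-downs that push a Wingless-driven reporter up or down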 (primary screen)
Cell system: Drosophila clone 8 imaginal disc epithelial cells
Reagents: long dsRNA against Drosophila genes
Challenge: pathway stimulated by co-transfected Wingless expression plasmid
Measured: 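Dual luciferase reads per well after Wingless plasmid stimulation: reporter firefly light and Renilla control light; activity is firefly divided by Renilla, a ratio not deposited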
Direction: firefly reporter light: higher = more Wg reporter light, before normalisation; Renilla control light: higher = more transfected or surviving cells
Call rule: 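a knock-down is a candidate when at least two out of four statistical tests show it departing from its plate mean; one test alone signals a weak candidate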
Meaning of the calls: active = candidate regulator (raises or lowers reporter); inactive = not a candidate

gene knocked down	reagent no.	reporter change call, replicate 1	firefly reporter light, replicate 1	firefly reporter light, replicate 2	Renilla control light, replicate 1	Renilla control light, replicate 2	outcome
CG6421	1		4410		2184		inactive
Sptz (Spastizin)	1		15112		3419		inactive
CG13088	1		2901	8355	908	2968	inactive
Tapdelta (Translocon-associated protein delta)	1		9752		3064		inactive
CG14431	1		17437		9440		inactive
CG14431	2		27234		6442		inactive
CG3770	1		12905		3338		inactive
l(2)37Cb (lethal (2) 37Cb)	1		6859		2473		inactive
CG2519	1		3830		1232		inactive
CG7849	1		2934	7050	788	2587	inactive
Gr68a (Gustatory receptor 68a)	1		7354		3366		inactive
asRNA:CR43159 + yellow-k	1		6258		3328		inactive
CG15739	1		19245		10916		inactive
CG2656	1		8272		3028		inactive
Gmap (Golgi microtubule-associated protein)	1		2612	13561	970	4104	inactive
Gmap (Golgi microtubule-associated protein)	2		18081		8218		inactive
Rpe (Ribulose-5-phosphate-3-epimerase)	1		8636		1485		inactive
CG10283	1		7931		3074		inactive
Atox1 (Antioxidant 1 copper chaperone)	1		6.70e5	6.65e5	2.19e5	67929	inactive
Cpr65Aw (Cuticular protein 65Aw)	1		3639		1860		inactive
Aven (Apoptosis and caspase activation inhibitor)	1		16544		10741		inactive
EndoB (Endophilin B)	1		5973		2394		inactive
CG6026	1		24010		3511		inactive
MED10 (Mediator complex subunit 10)	1		8592		3591		inactive
Cog7 (Component of oligomeric golgi complex 7)	1		12184		4134		inactive
CG11951	1		7287		2676		inactive
l(2)k10201 (lethal (2) k10201)	1		2957	7372	721	3267	inactive
l(2)k10201 (lethal (2) k10201)	2		2498	7255	617	2520	inactive
CG43327 + CG43328	1		17888		12869		inactive
GC1	1		15681		5209		inactive
Obp58d (Odorant-binding protein 58d)	1		2554	7084	864	2786	inactive
png (pan gu)	1		13878		14785		inactive
lov (jim lovell)	1		2321	9445	685	4032	inactive
nkd (naked cuticle)	1	Wg reporter activity raised	82416		8347		active
GXIVsPLA2	1		5792		2028		inactive
CG12374	1		7608		2300		inactive
Cdk5 (Cyclin-dependent kinase 5)	1		9452		3702		inactive
dia (diaphanous)	1		4005	5498	881	1744	inactive
CG13659	1		24192		17546		inactive
PPYR1 (Protein phosphatase Y regulator 1)	1		16809		7389		inactive
ndl (nudel)	1		1769	6709	1016	2656	inactive
pcm (pacman)	1		2937	7825	1829	1351	inactive
GstD5 (Glutathione S transferase D5)	1		12747		3697		inactive
beta3GalTII (beta-1,3-Galactosyltransferase II)	1		2458	5639	901	2433	inactive
CG5554	1		3253	6745	632	1897	inactive
Ir68b (Ionotropic receptor 68b)	1		7296		2170		inactive
vimar (visceral mesodermal armadillo-repeats)	1		12304		3104		inactive
Cog8 (Component of oligomeric golgi complex 8)	1		6730		3869		inactive
sl (small wing)	1		1424	4506	754	1846	inactive
sl (small wing)	2		2.37e5	2.71e5	1.25e5	1.24e5	inactive
Indy-2 + CG33934	1		2404	7341	1232	2294	inactive
Indy-2 + CG33934	2		13589		3933		inactive
CG11828	1		11585		6560		inactive
CG11828	2		8.28e5	8.01e5	3.21e5	2.75e5	inactive
mRpL38 (mitochondrial ribosomal protein L38)	1		15223		6865		inactive
CG3216	1		2404	5190	524	1414	inactive
Nep3 (Neprilysin 3)	1		20877		9014		inactive
Lamtor1 (Late endosomal/lysosomal adaptor, MAPK and MTOR activator 1)	1		17596		5303		inactive
Pif1A + Pif1B	1		14490		4562		inactive
Pif1A + Pif1B	2		7592		1713		inactive
Pif1A + Pif1B	3		20519		6177		inactive
CG7322	1		17037		8817		inactive
Sr-CIV (Scavenger receptor class C, type IV)	1		3156	8342	1050	2288	inactive
CG3587	1		4164	8632	1571	2674	inactive
CG3587	2		4.54e5	5.36e5	1.77e5	2.24e5	inactive
CCHa2-R (CCHamide-2 receptor)	1		21559		8202		inactive
CCHa2-R (CCHamide-2 receptor)	2		2533	8537	837	2866	inactive
CCHa2-R (CCHamide-2 receptor)	3		2957	8618	711	3132	inactive
CG7685	1		17692		3036		inactive
CG10469	1		1315	7004	853	2539	inactive
Usp15-31 (Ubiquitin specific protease 15/31)	1		24884		6843		inactive
Usp15-31 (Ubiquitin specific protease 15/31)	2		3184	7723	506	1104	inactive
mRpS31 (mitochondrial ribosomal protein S31)	1		7291		2651		inactive

12 entries from above, arranged by “Renilla control light, replicate 1”, high to low:
gene knocked down	reagent no.	reporter change call, replicate 1	firefly reporter light, replicate 1	firefly reporter light, replicate 2	Renilla control light, replicate 1	Renilla control light, replicate 2	outcome
CG3587	2		4.54e5	5.36e5	1.77e5	2.24e5	inactive
CG7322	1		17037		8817		inactive
CCHa2-R (CCHamide-2 receptor)	1		21559		8202		inactive
Usp15-31 (Ubiquitin specific protease 15/31)	1		24884		6843		inactive
CG7685	1		17692		3036		inactive
mRpS31 (mitochondrial ribosomal protein S31)	1		7291		2651		inactive
CG3587	1		4164	8632	1571	2674	inactive
Sr-CIV (Scavenger receptor class C, type IV)	1		3156	8342	1050	2288	inactive
CG10469	1		1315	7004	853	2539	inactive
CCHa2-R (CCHamide-2 receptor)	2		2533	8537	837	2866	inactive
CCHa2-R (CCHamide-2 receptor)	3		2957	8618	711	3132	inactive
Usp15-31 (Ubiquitin specific protease 15/31)	2		3184	7723	506	1104	inactive
